Experimental data reported in PubChem BioAssay AID1671190 (National Center for Advancing Translational Sciences (NCATS), 2021).
Among all 580,000 compounds or so, about 6,100 (1.1%) were called active. Inconclusive results, whose numbers are uncertain, are shown with a selection of clear calls. The call rests on the fitted dose curve; in most records, active means well fitted inhibition curve with a large enough effect; inconclusive means small, poorly fitted or top-dose-only effect, or another doubt; inactive means no such curve, though single readings can be large or run the other way. Where the call is inconclusive, the potency comes from a doubtful curve fit.
On the % scale 0 is the no-effect control and ±100 the full control effect; potency means the concentration at half of the fitted maximal effect.

Sequences of proteins named here, by UniProt entry; tags and fusion partners are left off. A change or cut given only in a name is not applied to a line headed by its entry.
UniProt P18054: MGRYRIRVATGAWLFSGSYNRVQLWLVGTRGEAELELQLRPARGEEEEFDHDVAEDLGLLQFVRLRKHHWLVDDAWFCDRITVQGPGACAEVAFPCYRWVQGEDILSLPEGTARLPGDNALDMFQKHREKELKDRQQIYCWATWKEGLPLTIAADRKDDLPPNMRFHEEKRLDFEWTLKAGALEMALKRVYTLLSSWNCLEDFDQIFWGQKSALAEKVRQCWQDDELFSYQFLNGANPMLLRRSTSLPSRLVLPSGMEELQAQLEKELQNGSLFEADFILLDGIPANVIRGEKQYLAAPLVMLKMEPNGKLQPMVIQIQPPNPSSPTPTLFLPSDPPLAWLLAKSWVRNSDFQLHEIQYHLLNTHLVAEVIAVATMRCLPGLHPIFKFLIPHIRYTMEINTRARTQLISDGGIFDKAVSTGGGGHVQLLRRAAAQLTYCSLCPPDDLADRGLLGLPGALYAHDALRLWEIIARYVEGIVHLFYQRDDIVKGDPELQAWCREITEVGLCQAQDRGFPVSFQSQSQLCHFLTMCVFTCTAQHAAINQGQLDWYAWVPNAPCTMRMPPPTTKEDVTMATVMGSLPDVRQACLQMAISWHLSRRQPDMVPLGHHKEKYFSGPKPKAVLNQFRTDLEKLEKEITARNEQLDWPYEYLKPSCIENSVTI

These molecules were tested against Polyunsaturated fatty acid lipoxygenase ALOX12 (Homo sapiens) (UniProt P18054) (assay: Primary qHTS assay for inhibitors of human arachidonate 12S-lipoxygenase (ALOX12): Round 2). Settings: purified 12hLO, xylenol orange hydroperoxide absorbance; activity change, negative = inhibition: at 108 µM (top of the series) unless noted.
Outline: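 Hydroperoxide product was detected by ferrous iron/xylenol orange as the 573 to 405 nm absorbance ratio. Arachidonic acid at 40 uM (final) was turned over for 30 min at room temperature by 150 nM human 12hLO, pH 7.0 Hepes buffer, after 15 min compound preincubation.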
With `COc1ccc(NC(=O)CSc2nc3ccccc3[nH]2)cc1` the Potency was inconclusive: 158 µM [inhibitor, single point].
In the case of `CCOC(=O)C1CCN(C(=O)CSc2n[nH]c(-c3ccccc3)n2)CC1`, the Potency is reported as inconclusive: 28.2 µM [inhibitor, partial curve, poor fit].
For `CS(=O)(=O)c1ccccc1C(=O)Nc1ccc(-c2ccccc2)cc1`, the Potency was inconclusive: 31.6 µM [inhibitor, partial curve, poor fit].
In the case of `Cc1ccc(Nc2nc(NCCc3ccccc3)nc3c2cnn3C)cc1C`, the Potency is reported as inconclusive: 44.7 µM [inhibitor, partial curve, poor fit].
For `O=Cc1ccc(OCc2cccc(Cl)c2)cc1`, the Potency was inconclusive: 141 µM [inhibitor, single point].
`CCOC(=O)C1=C(O)c2ccccc2C(=O)/C1=C\c1ccc(C)cc1` was tested, and the Potency was active: 10 µM.
In the case of `Cc1cc(Cl)ccc1Oc1nc(-c2ccc(F)cc2)ccc1C#N`, the Potency is reported as “inactive”.
`O=C(c1cccc(F)c1)N1CCC2(CC1)CCN(c1ccncc1)CC2` was tested, and the Potency was “inactive”.
With `CCCN1CCc2[nH]cnc2C12CCN(C(=O)c1ccc(CSC)o1)CC2` the Potency was “inactive”.
With `Cc1cccc(C)c1-c1cc(C(=O)N2CCOCC2)c2cnn(C)c2n1` the activity change, negative = inhibition was inactive: 4.29% [at 6.33 µM].
`Cc1ccc(NC(=O)CSCn2nnc3c(=O)[nH]c(Cc4ccc(F)cc4)nc32)c(C)c1` was tested, and the Potency was inconclusive: 35.5 µM [inhibitor, partial curve, poor fit].
With `COc1ccc(-c2ccc(CCC(=O)O)n2CC2CCCO2)cc1` (stereo not drawn) the Potency was “inactive”.
In the case of `CCCCC(CC)CNC(=O)CCCc1nnc2n(CCC)c(=O)c3sccc3n12` (stereo not drawn), the Potency is reported as “inactive”.
For `COCC(=O)NC[C@@H]1C=C(C)[C@H](CC(=O)N(C)Cc2ccccc2)C[C@H]1C(C)C`, the Potency was inconclusive: 39.8 µM [inhibitor, full curve, poor fit].
With `COC(=O)C1=C(C)N(C)C(=NCc2ccccc2C(F)(F)F)NC1c1ccc(F)cc1` (stereo not drawn) the Potency was inconclusive: 50.1 µM [inhibitor, partial curve, poor fit].
With `COc1cc2c(=O)c(C(=O)c3ccc(C)c(C)c3)cn(Cc3ccccc3)c2cc1OC` the Potency was inconclusive: 100 µM [inhibitor, partial curve, poor fit].
With `CN(C)C(=O)c1ccc(NC(=O)COC(=O)c2cc3c(s2)CCCCC3)cc1` the Potency was inconclusive: 89.1 µM [inhibitor, partial curve, poor fit].
For `CC(CC1C(C#N)=C(N)SC(N)=C1C#N)c1ccccc1` (stereo not drawn), the Potency was inconclusive: 6.31 µM [inhibitor, full curve, poor fit].
With `Cc1cc(C)c2nc(NC(=O)c3ccc(S(=O)(=O)N4CCCC4)cc3)sc2c1` the Potency was inconclusive: 50.1 µM [inhibitor, partial curve, poor fit].
With `Cn1c(=O)c2cc(NC(=O)CCc3ccc4c(c3)OCO4)ccc2n1Cc1ccc(F)cc1` the Potency was inconclusive: 126 µM [inhibitor, single point].
In the case of `COc1c(S(=O)(=O)NCCCn2ccnc2)ccc(Cl)c1Cl`, the Potency is reported as “inactive”.
In the case of `Cc1ccc(NC(=S)NCc2ccc(S(N)(=O)=O)cc2)cc1Cl`, the Potency is reported as inconclusive: 39.8 µM [inhibitor, partial curve].
In the case of `CCn1cnc2c(cnn2-c2ccccc2)c1=O`, the Potency is reported as “inactive”.
For `Cc1nc(N2CCCC2)c2c(C(=O)Nc3ccc(C)c(Cl)c3)c(C)oc2n1`, the Potency was inconclusive: 44.7 µM [inhibitor, partial curve, poor fit].
For `COc1ccc(N2C(=O)C3C(C2=O)C(C(=O)c2ccc(Cl)cc2)N2CCCC32)cc1` (stereo not drawn), the Potency was inconclusive: 79.4 µM [inhibitor, partial curve, poor fit].
For `Nc1nc(-c2cc(O)ccc2[N+](=O)[O-])cc(-c2ccccc2)c1[N+](=O)[O-]`, the Potency was inconclusive: 5.62 µM [inhibitor, full curve, poor fit].
In the case of `CC1CCCN(CCOCCOc2ccc(Cl)cc2Br)C1` (stereo not drawn), the Potency is reported as inconclusive: 0.708 µM [inhibitor, full curve, poor fit].
In the case of `CCN(CC(=O)NC(C)(C)C)C(=O)COc1c(Cl)cc(Cl)c2ccc(C)nc12`, the Potency is reported as inconclusive: 20 µM [inhibitor, full curve, poor fit].
In the case of `Cc1cc(NC(=O)CS(=O)(=O)c2cn(Cc3cccc(Br)c3)c3ccccc23)no1`, the Potency is reported as “inactive”.
With `COc1ccc([C@H]2[C@H](C(=O)C(C)(C)C)N3N=Cc4ccccc4C3C23C(=O)OC(C)(C)OC3=O)cc1` (stereo partly drawn) the Potency was inconclusive: 11.2 µM [inhibitor, full curve].
With `Cc1cccc(C(=O)Nc2ccc(C3(C(=O)NCCC(C)C)CCCCC3)cc2)c1` the Potency was active: 7.94 µM.
`CC1CCC(NC(=O)Nc2cccs2)CC1` (stereo not drawn) was tested, and the Potency was active: 12.6 µM.
`COc1ccc(NC(=O)Cn2c(=O)c(-c3noc(C)n3)c3n(c2=O)CCCC3)cc1OC` was tested, and the Potency was “inactive”.
With `Cc1nnc(Sc2c(-c3ccccc3)c3ccc(Cl)cc3[nH]c2=O)s1` the Potency was “inactive”.
With `O=C(NC(=S)Nc1cccc(NC(=O)c2ccccc2Cl)c1)c1cccs1` the Potency was inconclusive: 8.91 µM [inhibitor, partial curve, poor fit].
With `COC(=O)c1c(C)oc2ccc(N(C(=O)c3ccncc3)S(=O)(=O)c3cc(C)c(C)cc3C)cc12` the Potency was “inactive”.
With `COc1ccc(-n2c(=O)/c(=C\c3cccs3)s/c2=C(/C#N)C(=O)N2CCN(C)CC2)cc1` the Potency was inconclusive: 50.1 µM [inhibitor, partial curve, poor fit].
For `C/C=C/c1c(C)nc2sc(C#N)c(N)c2c1C`, the Potency was “inactive”.
In the case of `O=C(O)c1cc(N/N=C/C=C/c2ccccc2)ccc1Cl`, the Potency is reported as inconclusive: 89.1 µM [inhibitor, partial curve, poor fit].
`COc1ccccc1-c1c(C)oc2c(CN3CCOCC3)c(O)ccc2c1=O` was tested, and the Potency was “inactive”.
For `COc1ccc(CNC(=O)CSCc2cnn(-c3ccccc3)c2-n2cccc2)cc1`, the Potency was inconclusive: 4.47 µM [inhibitor, full curve, poor fit].
In the case of `CC(C)(C)Nc1nc(Cl)nc(N(C#N)CN2C(=O)c3ccccc3S2(=O)=O)n1`, the Potency is reported as inconclusive: 10 µM [inhibitor, partial curve, poor fit].
For `COc1ccc2cc(C(=O)/C=C/c3cc(OC)c(O)c(OC)c3)ccc2c1`, the Potency was inconclusive: 44.7 µM [inhibitor, partial curve, poor fit].
In the case of `CN(c1ccccc1)S(=O)(=O)c1cccc(C(=O)Nc2nn[nH]n2)c1`, the Potency is reported as inconclusive: 3.55 µM [inhibitor, full curve, poor fit].
In the case of `CCC(CC)C(=O)Nc1nnc(SCC(=O)N2CCN(c3ccccc3OC)CC2)s1`, the Potency is reported as “inactive”.
With `Cc1ccc(CNc2oc(COc3ccccc3Cl)nc2C#N)cc1` the Potency was “inactive”.
In the case of `Cc1cccc(N2CCN(CC(=O)NC(=O)NCC(F)(F)F)CC2)c1C`, the Potency is reported as inconclusive: 44.7 µM [inhibitor, partial curve, poor fit].
In the case of `CC(=O)c1ccccc1NC(=O)COC(=O)c1ccccc1NC(=O)c1ccccc1`, the Potency is reported as “inactive”.
`Cc1ccc(C(=O)N/C(=C/c2ccccc2)C(=O)NCC2CCCO2)cc1` (stereo not drawn) was tested, and the Potency was inconclusive: 100 µM [inhibitor, single point].
`CCOC(=O)CCc1c(C)nc(SCCN2CCCC2)c(C#N)c1C` was tested, and the Potency was “inactive”.
With `COc1ccc2cc(C3=CC(=O)CCC3)ccc2c1` the Potency was inconclusive: 39.8 µM [inhibitor, partial curve, poor fit].
`O=C(NNc1ncnc2sccc12)c1ccc(Cl)cc1` was tested, and the Potency was “inactive”.
In the case of `Cc1[nH]c(=O)c(C#N)c(C)c1CCC(=O)Nc1cc(S(C)(=O)=O)ccc1Cl`, the Potency is reported as inconclusive: 50.1 µM [inhibitor, partial curve].
In the case of `Cc1ccc(C)c(C(=O)CSc2nc3ccccc3c(=O)[nH]2)c1`, the Potency is reported as “inactive”.
`CC(=O)c1ccc(S(=O)(=O)Nc2ccc(N3CCOCC3)cc2)cc1` was tested, and the Potency was inconclusive: 44.7 µM [inhibitor, partial curve, poor fit].
`CCOc1ccc(/C=C(\C#N)C(=O)c2ccc(C)cc2)cc1OC` was tested, and the Potency was “inactive”.
`O=C(Cn1c(=O)nc2n1C(=O)N(c1ccccc1)C2)NCc1ccccc1` was tested, and the Potency was inconclusive: 10 µM [inhibitor, full curve, poor fit].
`Cc1ccc(-c2[nH]nc3c2C(c2ccc(OC(=O)N4CCOCC4)cc2)C(C#N)=C(N)O3)cc1` (stereo not drawn) was tested, and the Potency was inconclusive: 17.8 µM [inhibitor, full curve, poor fit].
For `CS(=O)(=O)c1ccc(OCC2(CNC3CCC3)C[C@@H](O)[C@@H](O)C2)cc1` (stereo partly drawn), the Potency was “inactive”.
With `CC(C)C[C@@H](N)[C@H](O)C(=O)N[C@H](C(=O)N[C@H](C(=O)N[C@@H](CC(=O)O)C(=O)O)C(C)C)C(C)C` the Potency was inconclusive: 5.44 µM [inhibitor, partial curve, poor fit].
For `COc1cc2c(cc1OC)-c1c(c(C(=O)Nc3cccnc3)nn1-c1ccccc1)C2`, the Potency was “inactive”.
`N#C/C(=C\c1ccc(-c2ccccc2C(=O)O)o1)c1nc2ccccc2[nH]1` was tested, and the Potency was inconclusive: 25.1 µM [inhibitor, partial curve, poor fit].
With `COc1ccc(Br)cc1S(=O)(=O)N1CCOCC1` the Potency was “inactive”.
With `O=C(Cn1nc2c(cc1=O)CCCC2)Nc1ccc(F)cc1F` the Potency was inconclusive: 0.398 µM [inhibitor, full curve, poor fit].
With `Cc1ccc(-c2cc(C(F)F)nc(N3CCC(C)CC3)n2)cc1` the Potency was “inactive”.
In the case of `Cc1ccc(NC(=O)C2=COCCO2)cc1Cl`, the Potency is reported as “inactive”.
For `Fc1ccc(COc2ccc3ccccc3c2CNCc2cccnc2)cc1`, the Potency was inconclusive: 100 µM [inhibitor, partial curve, poor fit].
For `N#Cc1ccc2nc(-c3ccc(CN4CCC5(CC4)CNc4ccccc45)cc3)c(-c3ccccc3)nc2c1`, the Potency was inconclusive: 20 µM [inhibitor, partial curve, poor fit].
